Taken from: PubChem BioAssay AID1224830 (NIAID, 2016)

Test: 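Genes whose knock-down alters the TNF-alpha reporter response to LPS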 (primary screen)
Cells: human THP-1 monocytic leukaemia cells, TNF dual-luciferase reporter clone, PMA-differentiated to macrophage-like cells
Reagents: siRNA pool against human genes, 50 nM
Duration: LPS for 4 h, given about 3 days after siRNA transfection
Conditions: bacterial LPS (TLR4 ligand), 10 ng/ml
Read-out: 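TNF firefly reporter luminescence divided by renilla, normalised to the plate median, then turned into a robust z-score for each replicate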
Direction: TNF reporter robust z-score: higher = stronger TNF reporter response to LPS
Hit rule: 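a well is active when its z-score exceeds 2.8 or falls below -1.5; control wells carry no call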
Shown is one part, drawn at random, of about 18,000 reagents tested. About 2,900 of all reagents (16%) count as active. 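Calls are made per well; low scores hint the gene aids the LPS response, high scores that it dampens it.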 Entries without a mark were called inactive. Repeated entries: four replicate wells of each siRNA pool. Reagent sequences are not shown.

The opening 5 records as a preview:
| gene | TNF reporter robust z-score |
| --- | --- |
| ATP1A1 (ATPase Na+/K+ transporting subunit alpha 1) | -0.34 |
| ATP1A1 (ATPase Na+/K+ transporting subunit alpha 1) | -1.45 |
| ATP1A1 (ATPase Na+/K+ transporting subunit alpha 1) | -0.76 |
| ATP1A1 (ATPase Na+/K+ transporting subunit alpha 1) | 0.4 |
| SLC15A2 | 0.55 |

The listing, from the start:
| gene | TNF reporter robust z-score |
| --- | --- |
| ATP1A1 (ATPase Na+/K+ transporting subunit alpha 1) | -0.34 |
| ATP1A1 (ATPase Na+/K+ transporting subunit alpha 1) | -1.45 |
| ATP1A1 (ATPase Na+/K+ transporting subunit alpha 1) | -0.76 |
| ATP1A1 (ATPase Na+/K+ transporting subunit alpha 1) | 0.4 |
| SLC15A2 | 0.55 |
| SLC15A2 | 0.12 |
| SLC15A2 | -0.34 |
| SLC15A2 | 307 (active) |
| SMARCD2 (SWI/SNF related BAF chromatin remodeling complex subunit D2) | -0.99 |
| SMARCD2 (SWI/SNF related BAF chromatin remodeling complex subunit D2) | 0.89 |
| SMARCD2 (SWI/SNF related BAF chromatin remodeling complex subunit D2) | 0.63 |
| SMARCD2 (SWI/SNF related BAF chromatin remodeling complex subunit D2) | 1.28 |
| PHF7 (PHD finger protein 7) | 0.06 |
| PHF7 (PHD finger protein 7) | 1.43 |
| PHF7 (PHD finger protein 7) | 0.38 |
| PHF7 (PHD finger protein 7) | 3.11 (active) |
| DELEC1 (deleted in esophageal cancer 1) | 0.63 |
| DELEC1 (deleted in esophageal cancer 1) | 0 |
| DELEC1 (deleted in esophageal cancer 1) | 0.88 |
| DELEC1 (deleted in esophageal cancer 1) | 0.36 |
| KCNJ8 (potassium inwardly rectifying channel subfamily J member 8) | 0.59 |
| KCNJ8 (potassium inwardly rectifying channel subfamily J member 8) | 0.25 |
| KCNJ8 (potassium inwardly rectifying channel subfamily J member 8) | 0.61 |
| KCNJ8 (potassium inwardly rectifying channel subfamily J member 8) | 0.17 |
| GPRIN2 (G protein regulated inducer of neurite outgrowth 2) | -0.97 |
| GPRIN2 (G protein regulated inducer of neurite outgrowth 2) | -0.74 |
| GPRIN2 (G protein regulated inducer of neurite outgrowth 2) | -1.26 |
| ASB1 (ankyrin repeat and SOCS box containing 1) | -0.44 |
| ASB1 (ankyrin repeat and SOCS box containing 1) | -0.86 |
| ASB1 (ankyrin repeat and SOCS box containing 1) | -0.43 |
| ASB1 (ankyrin repeat and SOCS box containing 1) | -1.78 (active) |
| KRT6B (keratin 6B) | -1.18 |
| KRT6B (keratin 6B) | -1.04 |
| KRT6B (keratin 6B) | -1.22 |
| KRT6B (keratin 6B) | -0.55 |
| CDY2A (chromodomain Y-linked 2A) | -0.26 |
| CDY2A (chromodomain Y-linked 2A) | 0.35 |
| CDY2A (chromodomain Y-linked 2A) | 0.07 |
| CDY2A (chromodomain Y-linked 2A) | 0.17 |
| CASP14 (caspase 14) | 0.98 |
| CASP14 (caspase 14) | 0.5 |
| CASP14 (caspase 14) | 0.81 |
| CASP14 (caspase 14) | -0.39 |
| THAP10 (THAP domain containing 10) | 0.27 |
| THAP10 (THAP domain containing 10) | 2.85 (active) |
| THAP10 (THAP domain containing 10) | 0.49 |
| THAP10 (THAP domain containing 10) | 0.53 |
| FAM220A (family with sequence similarity 220 member A) | 2.28 |
| FAM220A (family with sequence similarity 220 member A) | 0.27 |
| FAM220A (family with sequence similarity 220 member A) | 1.37 |
| FAM220A (family with sequence similarity 220 member A) | -0.58 |
| DUSP3 (dual specificity phosphatase 3) | 0.18 |
| DUSP3 (dual specificity phosphatase 3) | 1.9 |
| DUSP3 (dual specificity phosphatase 3) | 0.88 |
| DUSP3 (dual specificity phosphatase 3) | 0.25 |
| NEDD9 | 0.89 |
| NEDD9 | -0.57 |
| NEDD9 | 0.29 |
| NEDD9 | -0.17 |
| GMPR (guanosine monophosphate reductase) | 0.68 |
| GMPR (guanosine monophosphate reductase) | 0.21 |
| GMPR (guanosine monophosphate reductase) | -0.56 |
| GMPR (guanosine monophosphate reductase) | 0.53 |
| LHX2 (LIM homeobox 2) | 6.53 (active) |
| LHX2 (LIM homeobox 2) | 2.76 |
| LHX2 (LIM homeobox 2) | 5.46 (active) |
| LHX2 (LIM homeobox 2) | 1.25 |
| TXNRD1 (thioredoxin reductase 1) | -0.74 |
| TXNRD1 (thioredoxin reductase 1) | -0.1 |
| TXNRD1 (thioredoxin reductase 1) | -0.15 |
| TXNRD1 (thioredoxin reductase 1) | -1.34 |
| ZFY (zinc finger protein Y-linked) | 0.93 |
| ZFY (zinc finger protein Y-linked) | 2.2 |
| ZFY (zinc finger protein Y-linked) | 1.18 |
| ZFY (zinc finger protein Y-linked) | 2.1 |
| PPP4R3B (protein phosphatase 4 regulatory subunit 3B) | -0.47 |
| PPP4R3B (protein phosphatase 4 regulatory subunit 3B) | -1 |
| PPP4R3B (protein phosphatase 4 regulatory subunit 3B) | -0.21 |
| PPP4R3B (protein phosphatase 4 regulatory subunit 3B) | 0.06 |
| MYH2 (myosin heavy chain 2) | -0.7 |
| MYH2 (myosin heavy chain 2) | -0.35 |
| MYH2 (myosin heavy chain 2) | -0.65 |
| MYH2 (myosin heavy chain 2) | -0.25 |
| DAXX (death domain associated protein) | 6.1 (active) |
| DAXX (death domain associated protein) | 1.53 |
| DAXX (death domain associated protein) | 0.92 |
| DAXX (death domain associated protein) | 2.84 (active) |
| ANKRD13C (ankyrin repeat domain 13C) | -0.22 |
| ANKRD13C (ankyrin repeat domain 13C) | 0.31 |
| ANKRD13C (ankyrin repeat domain 13C) | 1.33 |
| ANKRD13C (ankyrin repeat domain 13C) | 0.67 |
| MIGA1 (mitoguardin 1) | -0.3 |
| MIGA1 (mitoguardin 1) | -0.12 |
| MIGA1 (mitoguardin 1) | -0.15 |
| SEL1L3 (SEL1L family member 3) | -0.56 |
| SEL1L3 (SEL1L family member 3) | -0.03 |
| SEL1L3 (SEL1L family member 3) | -0.74 |
| SEL1L3 (SEL1L family member 3) | 0.8 |
| SEPHS2 (selenophosphate synthetase 2) | 0.29 |
| SEPHS2 (selenophosphate synthetase 2) | 1.39 |
| SEPHS2 (selenophosphate synthetase 2) | -0.11 |
| SEPHS2 (selenophosphate synthetase 2) | 0.65 |
| TIMP3 (TIMP metallopeptidase inhibitor 3) | -0.19 |
| TIMP3 (TIMP metallopeptidase inhibitor 3) | 0.66 |
| TIMP3 (TIMP metallopeptidase inhibitor 3) | 0.32 |
| TIMP3 (TIMP metallopeptidase inhibitor 3) | 0.04 |
| UGT2B4 (UDP glucuronosyltransferase family 2 member B4) | 3.16 (active) |
| UGT2B4 (UDP glucuronosyltransferase family 2 member B4) | -0.91 |
| UGT2B4 (UDP glucuronosyltransferase family 2 member B4) | -1.19 |
| UGT2B4 (UDP glucuronosyltransferase family 2 member B4) | -1.72 (active) |
